Results published in PubChem BioAssay AID330 (DTP/NCI, 2004).
The list is a part of this screen's results and no random one: it gathers tests that were run many times, whatever their T/C, doses with no T/C, and many T/C values between a quarter and a half above the control. Other doses and runs of a compound stand elsewhere. T/C: endpoint of the treated group in % of that of the vehicle group. Some doses have a count of surviving animals in place of a T/C: the source holds a T/C of zero for them, seemingly a mark for toxic or unscored doses. Some survivor counts are full or nearly so, which does not show that the dose was tolerated: the source hardly ever lists a survival T/C far under the control, and the zero likely stands for such cases as well. Counts of survivors are from the toxicity check (mostly the fifth day) where no day follows; animals may have died later. Schedules are NCI's codes, taken here to give the interval after Q, in days (D) or hours (H), and the number of doses after X. Some entries hold several experiments; their values stand side by side, smallest first. For survival time, this PubChem deposit counts one and a half times the control or more as active, and values a quarter to a half above the control carry no call in these data; other NCI protocols may use other cut-offs. Some T/C values carry the count of animals alive at the toxicity check (mostly the fifth day); without a count, all were alive then.

Tested on: P388 leukemia ip, CD2F1 mice, survival T/C
Assay: NCI In Vivo Anticancer Drug Screen. Data for tumor model P388 Leukemia (intraperitoneal) in CD2F1 (CDF1) mice
Conditions: T/C endpoint: median survival time, higher T/C = longer survival
[1] = dose: 100.0 mg/kg/injection, schedule: Q01DX009 (ip), vehicle: distilled water + Tween-80
[2] = dose: 200.0 mg/kg/injection, schedule: Q01DX009 (ip), vehicle: Klucel (hydroxypropylcellulose) (HPC)

SMILES: O=C1N[C@H]2[C@H](O)[C@H](O)[C@@H](O)[C@H](O)[C@@H]2c2cc3c(c(O)c21)OCO3
- survivor count (dose: 0.18 mg/kg/injection, schedule: Q01DX009 (ip), vehicle: other): 0 of 6
- survivor count (dose: 0.37 mg/kg/injection, schedule: Q01DX009 (ip), vehicle: other): 0 of 6
- survivor count (dose: 0.75 mg/kg/injection, schedule: Q01DX009 (ip), vehicle: other): 0 of 6
- T/C (dose: 0.75 mg/kg/injection, schedule: Q01DX009 (ip), vehicle: saline + Tween-80 + alcohol): 139 % of control
- T/C (dose: 0.75 mg/kg/injection, schedule: Q01DX009 (ip), vehicle: saline + alcohol): 138 % of control
- T/C (dose: 0.78 mg/kg/injection, schedule: Q01DX009 (ip), vehicle: saline + alcohol): 133 % of control
- T/C (dose: 1.5 mg/kg/injection, schedule: Q01DX005 (ip), vehicle: other): 132 % of control
- T/C (dose: 1.5 mg/kg/injection, schedule: Q01DX005 (ip), vehicle: saline + alcohol): 127 % of control
- survivor count (dose: 1.5 mg/kg/injection, schedule: Q01DX009 (ip), vehicle: other): 0 of 6
- T/C (dose: 1.5 mg/kg/injection, schedule: Q01DX009 (ip), vehicle: saline + Tween-80 + alcohol): 135 % of control
- T/C (dose: 1.5 mg/kg/injection, schedule: Q01DX009 (ip), vehicle: saline + alcohol): 142 % of control
- T/C (dose: 1.56 mg/kg/injection, schedule: Q01DX009 (ip), vehicle: saline + alcohol): 139 and 144 % of control
- T/C (dose: 3.0 mg/kg/injection, schedule: Q01DX005 (ip), vehicle: other): 135 % of control
- T/C (dose: 3.0 mg/kg/injection, schedule: Q01DX005 (ip), vehicle: saline + alcohol): 134 % of control
- survivor count (dose: 3.0 mg/kg/injection, schedule: Q01DX009 (ip), vehicle: other): 0 of 6
- T/C (dose: 3.13 mg/kg/injection, schedule: Q01DX009 (ip), vehicle: saline + alcohol): 146 % of control
- T/C (dose: 6.0 mg/kg/injection, schedule: Q01DX005 (ip), vehicle: saline + alcohol): 145 % of control
- survivor count (dose: 6.0 mg/kg/injection, schedule: Q01DX009 (ip), vehicle: other): 0 of 6
- survivor count (dose: 12.5 mg/kg/injection, schedule: Q01DX005 (ip), vehicle: saline + alcohol): 0 of 5
- survivor count (dose: 12.5 mg/kg/injection, schedule: Q01DX009 (ip), vehicle: saline + alcohol): 7 of 10 and 5 of 6
- survivor count (dose: 25.0 mg/kg/injection, schedule: Q01DX005 (ip), vehicle: saline + alcohol): 0 of 5
- survivor count (dose: 25.0 mg/kg/injection, schedule: Q01DX009 (ip), vehicle: saline + alcohol): 0 of 4 and 0 of 6
- survivor count (dose: 50.0 mg/kg/injection, schedule: Q01DX005 (ip), vehicle: saline + alcohol): 0 of 5
- survivor count (dose: 50.0 mg/kg/injection, schedule: Q01DX009 (ip), vehicle: saline + alcohol): 0 of 4
- survivor count (dose: 100.0 mg/kg/injection, schedule: Q01DX009 (ip), vehicle: saline + alcohol): 0 of 4

SMILES: O=C(N/N=C/c1cccc(O)c1O)N/N=C/c1cccc(O)c1O
- T/C [1]: 136 % of control
- T/C (dose: 200.0 mg/kg/injection, schedule: Q01DX009 (ip), vehicle: distilled water + Tween-80): 134 % of control [5 of 6 alive]
- survivor count (dose: 400.0 mg/kg/injection, schedule: Q01DX009 (ip), vehicle: distilled water + Tween-80): 3 of 6 and 5 of 6

SMILES: COC(=O)c1nc(N)nc(C(=O)OC)c1C(=O)c1cccc([N+](=O)[O-])c1
- survivor count (dose: 240.0 mg/kg/injection, schedule: Q01DX005 (ip), vehicle: Klucel (hydroxypropylcellulose) (HPC)): 0 of 6

SMILES: COC1CC(OC2CCC3(C)C(=CCC4C3C(OC(C)=O)C(OC(=O)CC(C)C)C3(C)C(C(C)=O)CCC43O)C2)OC(C)C1OC1CC(OC)C(OC2CC(OC)C(OC3OC(C)C(OC4OC(CO)C(O)C(O)C4O)C(OC)C3O)C(C)O2)C(C)O1 (configuration not stated)
- survivor count (dose: 33.0 mg/kg/injection, schedule: Q01DX005 (ip), vehicle: Klucel (hydroxypropylcellulose) (HPC)): 0 of 6

SMILES: C/C(=N\NC(=S)N1CCSCC1)c1ccccn1
- survivor count (dose: 25.0 mg/kg/injection, schedule: Q01DX005 (ip), vehicle: saline with Tween-80): 5 of 6
- survivor count (dose: 50.0 mg/kg/injection, schedule: Q01DX005 (ip), vehicle: saline with Tween-80): 4 of 6
- survivor count (dose: 100.0 mg/kg/injection, schedule: Q01DX005 (ip), vehicle: saline with Tween-80): 2 of 6
- survivor count (dose: 200.0 mg/kg/injection, schedule: Q01DX005 (ip), vehicle: saline with Tween-80): 0 of 6

SMILES: O=C1Cc2ccccc2C(=O)N1
- survivor count (dose: 400.0 mg/kg/injection, schedule: Q04DX003 (ip), vehicle: saline with Tween-80): 3 of 6

SMILES: CNC(=O)OCc1c(COC(=O)NC)c(-c2ccc(S(=O)(=O)c3ccccc3)cc2)n(C)c1C
- T/C (dose: 5.0 mg/kg/injection, schedule: Q01DX009 (ip), vehicle: distilled water + Tween-80): 137 % of control
- T/C (dose: 6.25 mg/kg/injection, schedule: Q01DX009 (ip), vehicle: distilled water + Tween-80): 139 % of control
- T/C (dose: 10.0 mg/kg/injection, schedule: Q01DX009 (ip), vehicle: distilled water + Tween-80): 136 % of control
- T/C (dose: 20.0 mg/kg/injection, schedule: Q01DX009 (ip), vehicle: distilled water + Tween-80): 146 % of control
- T/C (dose: 25.0 mg/kg/injection, schedule: Q01DX009 (ip), vehicle: distilled water + Tween-80): 148 % of control
- survivor count [1]: 6 of 6

SMILES: O=S(c1ccccc1)c1c(Cl)c(Cl)nc(Cl)c1Cl (configuration not stated)
- survivor count (dose: 33.0 mg/kg/injection, schedule: Q01DX009 (ip), vehicle: saline with Tween-80): 4 of 6
- survivor count (dose: 50.0 mg/kg/injection, schedule: Q01DX009 (ip), vehicle: saline with Tween-80): 4 of 6 and 6 of 6
- survivor count (dose: 75.0 mg/kg/injection, schedule: Q01DX009 (ip), vehicle: saline with Tween-80): 0 of 6 and 1 of 6

SMILES: COc1cccc2c1C(=O)c1c(O)c3c(c(O)c1C2=O)C[C@@](O)(/C(C)=N/N1CCCCC1)C[C@@H]3OC1CC(N)C(O)C(C)O1 (some centres not stated)
- T/C (dose: 0.62 mg/kg/injection, schedule: Q01DX009 (ip), vehicle: saline): 139 and 145 % of control
- T/C (dose: 1.25 mg/kg/injection, schedule: Q01DX009 (ip), vehicle: saline): 129 % of control
- survivor count (dose: 2.5 mg/kg/injection, schedule: Q01DX009 (ip), vehicle: saline): 3 of 6
- T/C (dose: 5.0 mg/kg/injection, schedule: Q01DX009 (ip), vehicle: saline): 136 % of control

SMILES: Clc1ccc(C2NCCNCc3ccccc32)cc1 (configuration not stated)
- survivor count (dose: 200.0 mg/kg/injection, schedule: Q01DX009 (ip), vehicle: saline with Tween-80): 0 of 6
- survivor count (dose: 400.0 mg/kg/injection, schedule: Q01DX009 (ip), vehicle: saline with Tween-80): 0 of 6

SMILES: O=C(O)c1cccc([N+](=O)[O-])c1O
- survivor count (dose: 50.0 mg/kg/injection, schedule: Q01DX009 (ip), vehicle: Klucel (hydroxypropylcellulose) (HPC)): 0 of 6
- survivor count (dose: 100.0 mg/kg/injection, schedule: Q01DX009 (ip), vehicle: Klucel (hydroxypropylcellulose) (HPC)): 0 of 6
- survivor count [2]: 0 of 6
- survivor count (dose: 400.0 mg/kg/injection, schedule: Q01DX009 (ip), vehicle: Klucel (hydroxypropylcellulose) (HPC)): 0 of 6

SMILES: COc1ccc2c3c(ccc2c1)CC1CCCN1C3 (configuration not stated)
- survivor count (dose: 200.0 mg/kg/injection, schedule: Q01DX005 (ip), vehicle: other): 0 of 6

SMILES: Nc1ccc([N+](=O)[O-])cc1Nc1c2ccccc2nc2ccccc12
- survivor count [2]: 1 of 6

SMILES: NC(=O)c1[nH]cnc1N
- survivor count (dose: 200.0 mg/kg/injection, schedule: Q01DX009 (ip), vehicle: saline): 6 of 6

SMILES: CCOC(=O)c1cc[nH]c1CC(=O)NC
- survivor count (dose: 400.0 mg/kg/injection, schedule: Q01DX001 (ip), vehicle: saline with Tween-80): 4 of 5

SMILES: C=C(C)C1CC2(C)C(C)C(OC(=O)/C(C)=C\C)CCC2C(O)C1=O (configuration not stated)
- survivor count (dose: 60.0 mg/kg/injection, schedule: Q04DX002 (ip), vehicle: distilled water + alcohol): 1 of 6
- survivor count (dose: 115.0 mg/kg/injection, schedule: Q04DX002 (ip), vehicle: distilled water + alcohol): 0 of 6
- survivor count (dose: 230.0 mg/kg/injection, schedule: Q04DX002 (ip), vehicle: distilled water + alcohol): 0 of 6

SMILES: COC(=O)C(=O)c1c(C2CC2)[nH]c2[nH]n(-c3ccccc3)c(=O)c2c1=O
- survivor count (dose: 240.0 mg/kg/injection, schedule: Q01DX005 (ip), vehicle: saline with Tween-80): 0 of 6
